# Data: PubChem BioAssay (EPA / NIEHS)
# By UniProt entry, the sequences of proteins in these tests, tags left out. Where a name states a change or a piece, a line headed by the entry shows the natural chain unless it says otherwise.
# UniProt O60674: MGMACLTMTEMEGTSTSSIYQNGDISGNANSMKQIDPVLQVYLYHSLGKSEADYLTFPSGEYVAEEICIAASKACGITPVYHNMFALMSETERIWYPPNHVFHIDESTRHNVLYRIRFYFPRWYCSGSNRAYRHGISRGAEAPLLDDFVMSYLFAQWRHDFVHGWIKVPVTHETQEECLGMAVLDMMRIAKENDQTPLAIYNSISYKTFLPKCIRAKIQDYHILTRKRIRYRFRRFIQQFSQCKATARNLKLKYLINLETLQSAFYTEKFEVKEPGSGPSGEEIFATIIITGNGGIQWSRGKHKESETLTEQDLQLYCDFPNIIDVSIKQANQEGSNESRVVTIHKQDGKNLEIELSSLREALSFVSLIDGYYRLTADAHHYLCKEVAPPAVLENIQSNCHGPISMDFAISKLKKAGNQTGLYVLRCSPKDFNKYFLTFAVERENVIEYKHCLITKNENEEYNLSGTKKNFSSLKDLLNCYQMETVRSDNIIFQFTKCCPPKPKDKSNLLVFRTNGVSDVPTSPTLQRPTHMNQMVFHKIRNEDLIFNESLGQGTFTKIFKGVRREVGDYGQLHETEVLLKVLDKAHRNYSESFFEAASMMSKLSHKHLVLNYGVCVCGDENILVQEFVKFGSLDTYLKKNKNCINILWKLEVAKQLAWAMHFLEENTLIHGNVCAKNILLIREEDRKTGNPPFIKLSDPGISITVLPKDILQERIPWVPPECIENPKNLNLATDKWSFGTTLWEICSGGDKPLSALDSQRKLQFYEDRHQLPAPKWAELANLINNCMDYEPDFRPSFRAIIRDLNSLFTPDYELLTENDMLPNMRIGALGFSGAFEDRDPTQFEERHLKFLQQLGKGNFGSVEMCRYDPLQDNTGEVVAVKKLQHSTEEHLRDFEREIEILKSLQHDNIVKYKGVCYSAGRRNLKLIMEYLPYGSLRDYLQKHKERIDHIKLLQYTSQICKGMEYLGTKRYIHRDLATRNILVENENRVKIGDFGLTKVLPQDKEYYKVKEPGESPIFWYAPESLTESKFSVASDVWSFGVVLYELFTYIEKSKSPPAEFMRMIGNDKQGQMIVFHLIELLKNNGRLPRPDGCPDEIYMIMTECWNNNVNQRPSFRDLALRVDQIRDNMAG
# UniProt Q13464: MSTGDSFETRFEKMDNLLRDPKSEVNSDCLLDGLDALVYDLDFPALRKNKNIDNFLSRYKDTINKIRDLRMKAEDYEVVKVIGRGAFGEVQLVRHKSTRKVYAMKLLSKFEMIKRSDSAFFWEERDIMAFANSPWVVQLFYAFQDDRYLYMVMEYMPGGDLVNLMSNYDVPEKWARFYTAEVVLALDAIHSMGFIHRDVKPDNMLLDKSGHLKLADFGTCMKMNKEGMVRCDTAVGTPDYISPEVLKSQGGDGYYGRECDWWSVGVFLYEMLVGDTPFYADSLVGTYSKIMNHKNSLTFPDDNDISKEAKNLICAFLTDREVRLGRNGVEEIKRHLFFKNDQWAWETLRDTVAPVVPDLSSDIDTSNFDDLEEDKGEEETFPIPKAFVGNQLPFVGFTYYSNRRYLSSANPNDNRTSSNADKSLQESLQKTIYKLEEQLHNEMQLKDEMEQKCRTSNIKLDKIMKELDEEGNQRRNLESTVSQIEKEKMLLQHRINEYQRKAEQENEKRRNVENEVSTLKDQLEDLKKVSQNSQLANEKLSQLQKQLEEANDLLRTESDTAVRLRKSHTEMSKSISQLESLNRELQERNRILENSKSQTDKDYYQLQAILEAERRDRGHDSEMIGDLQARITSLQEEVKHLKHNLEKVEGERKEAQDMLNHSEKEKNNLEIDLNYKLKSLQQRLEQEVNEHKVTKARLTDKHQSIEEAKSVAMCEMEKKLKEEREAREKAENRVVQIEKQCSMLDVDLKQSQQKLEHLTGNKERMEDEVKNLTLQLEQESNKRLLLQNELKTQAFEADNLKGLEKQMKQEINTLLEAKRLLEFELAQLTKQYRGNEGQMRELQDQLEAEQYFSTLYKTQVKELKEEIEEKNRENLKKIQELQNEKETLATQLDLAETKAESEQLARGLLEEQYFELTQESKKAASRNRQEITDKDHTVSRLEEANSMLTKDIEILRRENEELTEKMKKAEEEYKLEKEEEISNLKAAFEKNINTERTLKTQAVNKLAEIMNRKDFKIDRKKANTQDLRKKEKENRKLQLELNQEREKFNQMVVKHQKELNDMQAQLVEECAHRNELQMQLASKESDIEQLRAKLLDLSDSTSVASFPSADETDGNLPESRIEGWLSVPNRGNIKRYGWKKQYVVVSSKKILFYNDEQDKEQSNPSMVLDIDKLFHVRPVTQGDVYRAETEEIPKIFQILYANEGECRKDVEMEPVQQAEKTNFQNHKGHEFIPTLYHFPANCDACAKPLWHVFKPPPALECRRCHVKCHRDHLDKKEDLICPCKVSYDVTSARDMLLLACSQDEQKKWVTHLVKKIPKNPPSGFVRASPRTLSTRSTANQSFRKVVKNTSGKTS
# UniProt Q96RI1: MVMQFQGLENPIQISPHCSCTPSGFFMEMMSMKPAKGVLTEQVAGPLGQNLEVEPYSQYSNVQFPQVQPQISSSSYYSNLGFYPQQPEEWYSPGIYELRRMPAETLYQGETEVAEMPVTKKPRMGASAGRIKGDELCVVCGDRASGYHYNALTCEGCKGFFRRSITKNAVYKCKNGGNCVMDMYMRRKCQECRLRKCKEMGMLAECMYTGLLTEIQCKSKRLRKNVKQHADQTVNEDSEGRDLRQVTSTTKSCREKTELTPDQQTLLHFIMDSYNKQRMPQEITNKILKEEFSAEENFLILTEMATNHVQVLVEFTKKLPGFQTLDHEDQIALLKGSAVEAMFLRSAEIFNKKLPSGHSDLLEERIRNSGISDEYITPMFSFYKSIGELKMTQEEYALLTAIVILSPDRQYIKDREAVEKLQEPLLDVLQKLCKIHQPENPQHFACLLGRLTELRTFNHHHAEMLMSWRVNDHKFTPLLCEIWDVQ
# UniProt P04799: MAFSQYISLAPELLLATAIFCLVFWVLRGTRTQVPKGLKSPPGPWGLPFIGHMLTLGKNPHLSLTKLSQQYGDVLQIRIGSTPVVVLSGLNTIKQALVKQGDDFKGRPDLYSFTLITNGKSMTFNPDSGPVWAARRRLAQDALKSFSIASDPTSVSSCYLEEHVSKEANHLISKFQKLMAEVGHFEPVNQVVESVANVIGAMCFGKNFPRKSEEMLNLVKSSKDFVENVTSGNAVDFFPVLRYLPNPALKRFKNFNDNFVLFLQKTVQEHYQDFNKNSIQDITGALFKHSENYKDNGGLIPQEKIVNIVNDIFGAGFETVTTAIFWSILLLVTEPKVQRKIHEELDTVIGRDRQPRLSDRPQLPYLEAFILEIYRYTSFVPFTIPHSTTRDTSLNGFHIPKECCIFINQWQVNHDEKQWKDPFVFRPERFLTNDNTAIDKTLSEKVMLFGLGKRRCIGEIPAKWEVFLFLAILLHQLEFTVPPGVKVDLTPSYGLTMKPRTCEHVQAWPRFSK
# UniProt P37231: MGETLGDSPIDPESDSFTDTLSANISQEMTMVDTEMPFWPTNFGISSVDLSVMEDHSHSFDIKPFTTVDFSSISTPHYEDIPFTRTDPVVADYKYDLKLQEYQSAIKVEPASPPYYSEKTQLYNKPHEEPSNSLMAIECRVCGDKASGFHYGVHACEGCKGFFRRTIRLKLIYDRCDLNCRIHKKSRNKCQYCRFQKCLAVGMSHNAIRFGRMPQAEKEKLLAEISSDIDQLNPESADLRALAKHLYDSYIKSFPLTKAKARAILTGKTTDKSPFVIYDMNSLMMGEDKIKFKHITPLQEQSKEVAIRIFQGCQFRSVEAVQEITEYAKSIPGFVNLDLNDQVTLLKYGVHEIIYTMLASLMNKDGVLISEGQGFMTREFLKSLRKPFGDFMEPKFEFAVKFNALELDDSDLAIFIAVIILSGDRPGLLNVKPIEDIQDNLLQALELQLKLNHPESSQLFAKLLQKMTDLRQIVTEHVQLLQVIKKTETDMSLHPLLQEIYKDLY
# UniProt P06241, whole entry, looked up: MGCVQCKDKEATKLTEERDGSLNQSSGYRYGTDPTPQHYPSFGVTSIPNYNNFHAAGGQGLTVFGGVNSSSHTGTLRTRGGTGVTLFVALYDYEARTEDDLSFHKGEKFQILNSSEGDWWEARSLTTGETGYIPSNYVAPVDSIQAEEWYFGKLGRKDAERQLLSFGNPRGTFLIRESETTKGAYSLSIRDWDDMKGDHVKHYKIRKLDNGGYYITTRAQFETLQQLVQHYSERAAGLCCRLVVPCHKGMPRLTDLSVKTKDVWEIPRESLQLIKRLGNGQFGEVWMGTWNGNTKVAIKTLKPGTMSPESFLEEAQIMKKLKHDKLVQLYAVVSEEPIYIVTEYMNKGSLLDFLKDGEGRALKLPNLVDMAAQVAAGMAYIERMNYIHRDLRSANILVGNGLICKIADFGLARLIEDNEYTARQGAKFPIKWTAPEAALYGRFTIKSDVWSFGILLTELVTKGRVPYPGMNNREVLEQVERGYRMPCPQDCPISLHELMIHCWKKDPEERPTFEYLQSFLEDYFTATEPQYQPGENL
# UniProt P35813: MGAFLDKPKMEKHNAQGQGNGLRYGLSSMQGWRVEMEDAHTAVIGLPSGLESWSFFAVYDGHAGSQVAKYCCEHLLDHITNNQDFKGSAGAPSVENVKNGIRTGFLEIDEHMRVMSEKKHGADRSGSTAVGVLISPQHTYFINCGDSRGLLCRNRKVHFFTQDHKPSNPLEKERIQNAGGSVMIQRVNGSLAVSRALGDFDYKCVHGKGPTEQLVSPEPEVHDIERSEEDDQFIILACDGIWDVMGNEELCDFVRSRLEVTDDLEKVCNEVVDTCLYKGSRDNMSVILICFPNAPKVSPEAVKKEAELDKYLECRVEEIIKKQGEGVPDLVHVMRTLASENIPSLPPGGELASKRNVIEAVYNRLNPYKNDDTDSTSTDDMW
# UniProt P04629: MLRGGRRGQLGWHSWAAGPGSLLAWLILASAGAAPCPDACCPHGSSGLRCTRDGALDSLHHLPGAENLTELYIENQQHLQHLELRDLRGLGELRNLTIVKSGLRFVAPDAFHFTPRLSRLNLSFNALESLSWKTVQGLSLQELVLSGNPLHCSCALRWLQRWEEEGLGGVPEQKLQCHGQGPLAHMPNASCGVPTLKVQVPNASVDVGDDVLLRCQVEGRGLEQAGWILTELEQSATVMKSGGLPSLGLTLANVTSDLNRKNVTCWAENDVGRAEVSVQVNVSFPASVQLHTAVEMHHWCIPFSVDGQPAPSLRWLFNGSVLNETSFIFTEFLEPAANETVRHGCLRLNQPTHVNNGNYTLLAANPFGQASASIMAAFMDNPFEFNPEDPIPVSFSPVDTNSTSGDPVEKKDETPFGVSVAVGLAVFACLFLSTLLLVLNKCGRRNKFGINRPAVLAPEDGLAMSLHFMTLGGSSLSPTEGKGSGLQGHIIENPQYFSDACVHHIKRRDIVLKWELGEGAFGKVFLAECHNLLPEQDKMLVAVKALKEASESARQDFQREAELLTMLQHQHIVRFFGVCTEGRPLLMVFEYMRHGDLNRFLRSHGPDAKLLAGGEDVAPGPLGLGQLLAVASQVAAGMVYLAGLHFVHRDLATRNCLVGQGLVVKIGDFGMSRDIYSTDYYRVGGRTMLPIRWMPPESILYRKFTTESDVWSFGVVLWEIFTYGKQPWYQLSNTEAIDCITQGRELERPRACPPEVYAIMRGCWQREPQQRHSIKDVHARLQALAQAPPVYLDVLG
# UniProt P11509: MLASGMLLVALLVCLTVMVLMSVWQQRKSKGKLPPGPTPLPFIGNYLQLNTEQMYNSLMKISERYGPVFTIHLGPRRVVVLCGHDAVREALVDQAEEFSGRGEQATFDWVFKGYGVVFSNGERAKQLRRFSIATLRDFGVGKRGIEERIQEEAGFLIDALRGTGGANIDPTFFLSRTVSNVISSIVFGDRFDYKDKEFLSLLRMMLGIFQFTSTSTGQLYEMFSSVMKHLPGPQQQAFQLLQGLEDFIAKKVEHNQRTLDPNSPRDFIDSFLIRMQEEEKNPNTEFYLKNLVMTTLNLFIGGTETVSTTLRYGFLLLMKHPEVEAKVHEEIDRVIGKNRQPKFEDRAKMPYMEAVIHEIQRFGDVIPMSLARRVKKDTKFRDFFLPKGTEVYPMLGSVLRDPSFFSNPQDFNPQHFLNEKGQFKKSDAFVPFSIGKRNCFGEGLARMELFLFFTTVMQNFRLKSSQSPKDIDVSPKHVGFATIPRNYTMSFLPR
# “And” between values parts separate entries of the source, which are not always exact repeats. Equal entries are not always repeated. This list was built around the results that the source calls inconclusive (neither active nor inactive); the mix of calls is not that of the screen. For some assays here: Potencies of inconclusive entries are doubtful fits and often do not repeat. The source made the active and inactive calls. The calls were made as follows: active = hit-call score of the fitted dose curve at least 0.9, where 1 is the maximum; inconclusive = response in the unintended direction; inactive = score below 0.9.
# What was measured:
# [1] = system: guinea pig Dopamine Transporter (DAT), gene 100714898; experiment: NVS_TR_gDAT: NovaScreen (NVS) Transporter Assay for guinea pig Dopamine Transporter (DAT) (AID 2283369);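 also: active compounds lower bound radioligand signal relative to DMSO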
# How it was run: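 Radioligand displacement on membranes from guinea pig striatum, 2 h exposure, bound label counted by filtration and scintillation. Tested at 25 uM in duplicate, then actives in concentration series to 50 uM; DMSO as negative control.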
# [2] = target: human Serotonin Transporter (SERT), SLC6A4 (gene 6532) (UniProt P31645); experiment: NVS_TR_hSERT: NovaScreen (NVS) Transporter Assay for human Serotonin Transporter (SERT) (AID 2283372)
# How it was run: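 Human platelet membrane preparation; displacement of radioligand from serotonin transporter measured after 1 h by filtration and scintillation counting. Single 25 uM duplicate screen, then concentration series for actives, with DMSO as negative baseline.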
# [3] = target: human Janus Kinase 2 (Jak2), JAK2 (gene 3717) (UniProt O60674); experiment: NVS_ENZ_hJak2: NovaScreen (NVS) Enzymatic Assay for human Janus Kinase 2 (Jak2) (AID 2283169)
# How it was run: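 Single-point duplicate screen at 25 uM, with hits run in concentration series to a 50 uM top dose. Substrate-product separation by mobility shift with fluorescence detection, 1 h post-dosing; DMSO baseline.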
# [4] = target: cAMP-dependent protein kinase catalytic subunit alpha (Homo sapiens) (UniProt P17612); experiment: NVS_ENZ_hPKA: NovaScreen (NVS) Enzymatic Assay for human Protein Kinase A (PKA) (AID 2283192)
# How it was run: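 Cell-free kinase activity read by fluorescence after mobility-shift separation of substrate and product, 1 h post-dosing. Single-concentration duplicate screen (25 uM) preceded singleton concentration series (top 50 uM); loss of signal versus DMSO.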
# [5] = target: human Rho Associated Coiled-coil Containing Protein Kinase 1 (ROCK1), ROCK1 (gene 6093) (UniProt Q13464); experiment: NVS_ENZ_hROCK1: NovaScreen (NVS) Enzymatic Assay for human Rho Associated Coiled-coil Containing Protein Kinase 1 (ROCK1) (AID 2283214)
# How it was run: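 Compounds first run in duplicate at 25 uM against recombinant human ROCK1, then followed in concentration series. Kinase activity was read 1 h post-dosing by fluorescence with mobility-shift separation, as signal loss relative to DMSO.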
# [6] = target: Bile acid receptor (Homo sapiens) (UniProt Q96RI1); experiment: NVS_NR_hFXR_Antagonist: NovaScreen (NVS) Nuclear Receptor Binding Assay for human Farnesoid X Receptor Antagonism (FXR) (AID 2283350)
# How it was run: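 Antagonist-format time-resolved FRET binding assay with extracted human receptor protein, read 1 hour after compound addition. Compounds first screened at 25 uM in duplicate, then actives tested in concentration series, with loss of signal relative to DMSO.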
# [7] = target: rat CYP1A2, Cyp1a2 (gene 24297) (UniProt P04799); experiment: NVS_ADME_rCYP1A2: NovaScreen (NVS) CYP450-related Enzyme Activity (ADME) Assay for rat CYP1A2 (AID 2283115)
# How it was run: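 Primary testing ran in duplicate at 10 uM, with actives re-tested across concentration series. Fluorescence intensity from substrate turnover by recombinant protein, measured 1 hour post-dosing, with signal loss scored against acetonitrile vehicle.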
# [8] = target: Peroxisome proliferator-activated receptor gamma (Homo sapiens) (UniProt P37231); experiment: ATG_hPPARg_XSP2: Attagene TRANS-FACTORIAL Multi-Species (XSP2) HepG2 Assay for human Peroxisome Proliferator-activated Receptor gamma (PPARg) (AID 2283829);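 also: actives raise reporter mRNA above DMSO so AC50 reflects PPARg activation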
# How it was run: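 Reporter transcripts were measured by RT-PCR, fluorescent labeling, HpaI digestion and capillary electrophoresis, relative to DMSO, 24 h post-dosing. Transiently transfected HepG2 expressed NR-Gal4 chimeras regulating GAL4-UAS reporters; medium contained 3 nM 6-alpha-fluorotestosterone plus 1.5 nM norgestrel.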
# [9] = ATG_XTT_Cytotoxicity_XSP2: Cytotoxicity Assessment in the Attagene TRANS-FACTORIAL Multi-Species (XSP2) HepG2 Assay (AID 2283837)
# How it was run: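 XTT-based cell number read-out in human HepG2 liver cells carrying transfected reporter units, measured 24 h after chemical dosing. Activity is signal loss versus DMSO baseline.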
# [10] = target: human FYN Proto-Oncogene, Src family Tyrosine Kinase (Fyn), FYN (gene 2534) (UniProt P06241); experiment: NVS_ENZ_hFyn: NovaScreen (NVS) Enzymatic Assay for human FYN Proto-Oncogene, Src family Tyrosine Kinase (Fyn) (AID 2283161)
# How it was run: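 Cell-free kinase activity read by fluorescence after mobility-shift separation of substrate and product, 1 h post-dose. Initial single concentration 25 uM in duplicate, then concentration-response follow-up; DMSO baseline.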
# [11] = target: human Protein Phosphatase, Mg2+/Mn2+ Dependent 1A (PPM1A), PPM1A (gene 5494) (UniProt P35813); experiment: NVS_ENZ_hPPM1A: NovaScreen (NVS) Enzymatic Assay for human Protein Phosphatase, Mg2+/Mn2+ Dependent 1A (PPM1A) (AID 2283198)
# How it was run: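 Primary screen in duplicate at 25 uM, with actives then titrated to a maximum of 50 uM. Recombinant PPM1A dephosphorylation of fluorescent substrate measured at 1 h, with substrate and product separated by mobility shift; inhibition fitted against DMSO.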
# [12] = target: human Tropomyosin Receptor Kinase A (TRKA), NTRK1 (gene 4914) (UniProt P04629); experiment: NVS_ENZ_hTrkA: NovaScreen (NVS) Enzymatic Assay for human Tropomyosin Receptor Kinase A (TRKA) (AID 2283224)
# How it was run: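 Compounds were screened at 25 uM in duplicate, then concentration series to a 50 uM top for those meeting threshold (e.g. 30% inhibition). Enzyme was recombinant human TrkA, incubated 1 h. Product formation was quantified by fluorescence after mobility-shift separation.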
# [13] = target: Thyroid hormone receptor alpha (Rattus norvegicus) + Thyroid hormone receptor beta (Rattus norvegicus) (UniProt P18113+P63059); experiment: TOX21_TR_LUC_GH3_Agonist_Followup: Tox21 GH3 Thyroid Hormone Receptor Agonism Luciferase Follow-Up Assay (AID 2283939)
# How it was run: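 Agonist-mode confirmatory run: 15 concentrations (5 nM to 92 uM final) on GH3 rat pituitary cells, 24 h at 37C/5% CO2, T3 as positive control. Luminescence read with ONE-Glo after 30 min.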
# [14] = CPHEA_Stoker_NIS_Cytotoxicity: Cytotoxicity Assessment for CPHEA's Radioactive Iodide Uptake (RAIU) Assay for Sodium/Iodide Symporter (NIS) Inhibition, Stoker and Laws Labs (AID 2283897);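 also: active means loss of ATP signal versus DMSO meaning cytotoxicity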
# How it was run: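 CellTiter-Glo ATP luminescence gauged viability in HEK293T cells expressing human NIS after 2 h chemical exposure. Concentrations ran 0.001–100 uM in 0.5% DMSO; DMSO served as baseline for the loss-of-signal fit.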
# [15] = CCTE_Deisenroth_AIME_96WELL_CTox_Inactive: Cytotoxicity Assessment (CTOX) in CCTE's 96-well Estrogen Receptor Transactivation Assay without AIME metabolic competence (metabolism negative), Deisenroth Lab (AID 2284029)
# How it was run: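 Metabolism-negative mode: alginate-water lids without rat S9, 2 h pre-incubation of 10-point series (0.002 - 200 uM). Conditioned medium on VM7Luc4E2 cells 24 h; loss of fluorescent live-cell protease signal marks cytotoxicity.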
# SERPINA7 (gene 6906) = experiment: CCTE_GLTED_hTBG: CCTE's human Thyroxine-binding Globulin (TBG) Inhibition Assay, Great Lakes Toxicology and Ecology Division (GLTED) Lab (AID 2284343);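 also: active chemicals lower fluorescence versus DMSO baseline by displacing probe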
# How it was run: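 Human thyroxine-binding globulin was exposed to each chemical for 2 hours, during which the ANSA probe could be displaced. Fluorescence was then measured at 380/475 nm, and loss of signal was analysed relative to DMSO.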
# [16] = target: human CYP2A6, CYP2A6 (gene 1548) (UniProt P11509); experiment: NVS_ADME_hCYP2A6: NovaScreen (NVS) CYP450-related Enzyme Activity (ADME) Assay for human CYP2A6 (AID 2283099)
# How it was run: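 Compounds screened at 10 uM (duplicate) and, if active, titrated to a 20 uM top concentration against insect-cell-expressed CYP2A6. Loss of fluorescent product signal after 0.5 h, relative to acetonitrile baseline, indicates inhibition.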
# [17] = system: bovine Angiotensin II Receptor Type 2 (AT2), gene 407157; experiment: NVS_GPCR_bAT2: NovaScreen (NVS) G Protein-Coupled Receptor Assay for bovine Angiotensin II Receptor Type 2 (AT2) (AID 2283240)
# How it was run: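 Radioligand displacement on bovine cerebellar membranes, 1 hour incubation, filter-based scintillation counting; loss of signal vs DMSO. Duplicate single-point screen at 25 uM, then concentration-response to 50 uM maximum.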
# [18] = Tanguay_ZF_120hpf_YSE_legacy: (Legacy) Oregon State University Tanguay Lab 120 Hour Post-fertilization zebrafish Assay for Yolk Sac Edema (AID 2283634);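 also: actives raise the incidence of yolk sac edema above the DMSO baseline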
# How it was run: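 Presence or absence of yolk sac edema was recorded at 120 hpf in surviving larvae. These were wild-type Tropical 5D embryos, chorion removed at 4 hpf, held in static exposure at 28C from 6 hpf with 0.64% DMSO vehicle.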
# [19] = ATG_M_06_XSP2: Attagene TRANS-FACTORIAL Multi-Species (XSP2) HepG2 Assay for M06 Transcription Factor (Internal Marker) (AID 2283811);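 also: internal background marker reporter mRNA measured by RT-PCR and capillary electrophoresis; hits are increases in signal above the DMSO baseline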
# How it was run: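 Cells of the human liver line HepG2 carried transfected reporter transcription units and were treated for 24 h. Induced reporter transcripts were detected by fluorescence after RT-PCR and capillary electrophoresis, with activity fitted in the gain direction against DMSO.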
smiles,measurement,setting,value
Oc1ccc2c(c1)OC[C@@H](N1CCC(O)(c3ccc(F)cc3)CC1)[C@H]2O,AC50,[1],inconclusive: 3.12 µM
same,AC50,[2],inconclusive: 12.5 µM
C1=CCCC=CCCC=CCC1,AC50,[3],inconclusive: 25 µM
same,AC50,[4],inconclusive: 25 µM
same,AC50,[5],inconclusive: 25 µM
same,AC50,[6],inconclusive: 25 µM
CN(C)C(=S)SC(=S)N(C)C,AC50,[7],inconclusive: 5 µM
BrCc1cccc(Oc2ccccc2)c1,AC50,[8],active: 58.6 µM and active: 35.6 µM
same,AC50,[9],inconclusive: 100 µM
O=C(NO)C1(NS(=O)(=O)c2ccc(Oc3ccc(F)cc3)cc2)CCOCC1,outcome,[10],inactive
same,outcome,[11],inactive
same,AC50,[12],inconclusive: 0.367 µM
C[C@H](CCC(=O)NCC(=O)O)[C@H]1CC[C@H]2[C@@H]3[C@H](O)C[C@@H]4C[C@H](O)CC[C@]4(C)[C@H]3C[C@H](O)[C@]12C,outcome,[13],inactive
c1ccc2[nH]ccc2c1,AC50,[14],inconclusive: 50 µM
Cc1cc(-n2nc3ccc(Cl)cc3n2)c(O)c(C(C)(C)C)c1,outcome,[15],inactive
Cc1cc(S(=O)(=O)O)ccc1N=Nc1c(O)ccc2ccccc12,AC50,SERPINA7 (gene 6906),inconclusive: 0.00165 µM
CC1=CC(=O)CC(C)(C)C1,outcome,[16],inactive
same,AC50,[17],inconclusive: 25 µM
same,AC50,[18],inconclusive: 202 µM
Oc1ccc2cc(SSc3ccc4cc(O)ccc4c3)ccc2c1,outcome,[19],inactive

# As a short view, part of the list above:
smiles,measurement,setting,value
O=C(NO)C1(NS(=O)(=O)c2ccc(Oc3ccc(F)cc3)cc2)CCOCC1,outcome,[11],inactive
same,AC50,[12],inconclusive: 0.367 µM
